Test results reported in paper PMC9170038.
Protein sequences can lack the tags named with them.

Target: T1, MS2 coat protein, dlFG mutant del68-81insG (Escherichia phage MS2) (UniProt P03612)
T1 sequence (looked up, limits assumed): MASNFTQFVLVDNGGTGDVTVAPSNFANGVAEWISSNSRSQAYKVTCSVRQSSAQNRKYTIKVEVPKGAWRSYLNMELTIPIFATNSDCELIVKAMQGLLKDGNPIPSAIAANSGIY
Test: binding assay
Settings: 4 mM Mg2+, FMN 200 uM; RNA-MaP array; 100 mM Tris-HCl pH 7.5, 80 mM KCl, 4 mM MgCl2, 0.1 mg/mL BSA, 1 mM DTT, 0.01 mg/mL yeast tRNA, 0.01% Tween-20; protein 1.5 nM to 3 uM; 37 C (Table S3); purified recombinant protein

Kd, > 3000 nM:
CACUCGUGUCUAGGAUAUGAGUGACAAGCGCGAGAUUUUCUCGCCGCUAGCUCAGAAGGAGACAUGAGGAUCACCCAUGUAAGG [Eterna 6430053 (Small Loop Exclusion NG 1)]
GCGCAUGUCACAGGAUAUCCCAUAGUGUACAUGAGGAUCACCCAUGUACUGCAAUGCAGACACAAGGAGAAGGGUGAGACUCGU [Eterna 6148835 (Same State NG 2)]
GGUUGGCGAGGAUAUACAUGAGGAUCACCCAUGUGGUCCUGAGGCUGAUCAAGCCUAUGUAGAAGGCGCAAAUC [Eterna 6023507 (Exclusion 3)]
GUGAACAUGAGGAUCACCCAUGUAGCUCACUGCCAGUGGCUACAGGAUAUAGCACCUCGAGGGUGCUAGAAGGGUGGCCUAGAA [Eterna 6425047 (Same State NG 3)]

Same assay, conditions: 4 mM Mg2+, no ligand; RNA-MaP array; 100 mM Tris-HCl pH 7.5, 80 mM KCl, 4 mM MgCl2, 0.1 mg/mL BSA, 1 mM DTT, 0.01 mg/mL yeast tRNA, 0.01% Tween-20; protein 1.5 nM to 3 uM; 37 C (Table S3); purified recombinant protein

Kd, > 3000 nM:
AAGGGACAUGAGGAUCACCCAUGUUCGAAAGACGAUGGAUCGCAGGAUAUCCAGUGUUAGAGAGAGGAGAAGGGUGAUCCUAUU [Eterna 6149052 (Same State NG 3)]
AUAAAACAAAACCACACAUGAGGAUCACCCAUGUCAAGAUUACAGGAUAUCCAGCAGAGAUGCAUGGAGAAGGGUGAUCCCAAA [Eterna 6149015 (Same State NG 3)]
CAUGAUCUUCGGAUCAUGUACAUGAGGAUCACCCAUGUGACGAGUUGAUCCUCAAACAAGCUUUUUGCUCGUCUUAU [Eterna 10629 (Sensor v3, turn-off variant 1)]
GCCAGACAUGAGGAUCACCCAUGUAGCGAUACCAGCUCUGUUGUGAGCCCUUGGCAGCGCACUGGCAUCGCGGGUGAUCCUGCAU [Eterna 7619812 (Same State - Theophylline A)]
GCUCAUAUCACAGGAUAUGGCCAGCAAAUUUGGCCAGAAGGGUGAUUCAUAUUAAAAUCACAUGAGGAUCACCCAUGUACGGCA [Eterna 6148645 (Same State NG 1)]
GGCUGGUAGCUAGGAUAUGGGCGGUCACAUGAGGAUCACCCAUGUCAACAUCAAAACCAGAUUAACCAGAAGGAGCUGCGGGUU [Eterna 6148739 (Same State NG 2)]
GGCUGUCUCGCAGGAUAUGCUGAUCAGAAACUAGCAGAAGGGUGAUCCAGUCGAGGUUUGACAUGAGGAUCACCCAUGUGGAGU [Eterna 6148594 (Same State NG 1)]
UACCGCGACAACACGGUAUCACAUGAGGAUCACCCAUGUUCACAGGAUAUGCGAUAGCCAACGAAGCAGAAGGGUGAUUACUUA [Eterna 6148996 (Same State NG 3)]
UUGGCGCGAUCCUUGGUCUCACAUGAGGAUCACCCAUGUAGAGAGGAUAUGCAUAGGGCCCAAUGGCAGAAGGCUCUACAUGAG [Eterna 6148357 (Exclusion NG 3)]
